Measurements taken from PMC5573408, “Pepcan-12 (RVD-hemopressin) is a CB2 receptor positive allosteric modulator constitutively secreted by adrenals and in liver upon tissue damage” (Scientific Reports, 2017).

Assay: LC-MS/MS quantification of pepcans in mouse tissues
Format: in vivo
Conditions: for PC-23 level in adrenals: Swiss albino female mice, saline or LPS

Sequence: SALSDLHAHKLRVDPVNFKLLSH [Pepcan-23, putative precursor of pepcan-12]
- PC-23 level in adrenals: below the limit of detection
- PC-23 level in adrenals (listed as PC-23): < LOD
- pepcan-23 amount in brain (mouse, in vivo): 10 to 15 pmol/g
